Experimental data from paper PMC10158545.
Results are given in words; binding and its absence hold for the method and conditions named. Binding seen in cells or lysates may run through a third protein. Some entries that bind do so weakly or less than the wild type. For part of these data: Where a sequence is shown, tags or fusion partners need not be part of it. Values belong to the molecule of their own block, whether it stands above or below them.

By UniProt entry, the sequences of proteins in these tests, tags left out. Residues count along the entry.
UniProt Q9NZQ7, residues 19-290: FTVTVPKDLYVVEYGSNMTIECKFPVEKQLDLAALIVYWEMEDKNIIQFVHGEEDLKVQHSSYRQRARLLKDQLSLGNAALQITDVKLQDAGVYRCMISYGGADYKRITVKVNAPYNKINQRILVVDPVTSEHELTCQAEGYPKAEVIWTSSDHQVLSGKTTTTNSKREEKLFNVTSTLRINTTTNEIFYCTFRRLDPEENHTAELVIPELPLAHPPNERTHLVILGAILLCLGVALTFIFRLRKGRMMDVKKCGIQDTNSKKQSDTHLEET

How the values were obtained:
[1] = biological target: T1, Flag-tagged FLOT1 (FLOT1-3Flag) (human) (UniProt O75955); experiment: co-IP; HEK293T co-transfected with Flag-FLOT1 and HA-PD-L1 (or vector), lysates 48 h after transfection; anti-Flag or anti-HA magnetic beads at 4°C overnight, washed with PBST (0.1% Triton X-100); immunoblot with anti-HA or anti-Flag
T1 sequence: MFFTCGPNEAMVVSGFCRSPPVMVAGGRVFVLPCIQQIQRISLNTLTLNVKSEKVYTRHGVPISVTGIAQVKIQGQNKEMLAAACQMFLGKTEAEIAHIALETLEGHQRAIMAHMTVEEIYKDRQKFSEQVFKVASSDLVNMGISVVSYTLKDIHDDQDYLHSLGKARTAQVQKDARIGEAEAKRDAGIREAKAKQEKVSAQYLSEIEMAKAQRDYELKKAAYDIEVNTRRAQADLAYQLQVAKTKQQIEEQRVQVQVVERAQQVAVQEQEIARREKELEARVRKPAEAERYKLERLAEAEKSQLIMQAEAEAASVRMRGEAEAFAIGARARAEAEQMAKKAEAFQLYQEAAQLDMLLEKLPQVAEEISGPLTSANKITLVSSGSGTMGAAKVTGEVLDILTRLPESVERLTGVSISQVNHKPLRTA

[2] = biological target: programmed death-ligand 1 (PD-L1), endogenous (human (endogenous in A549 and A549/X)) (UniProt Q9NZQ7); experiment: co-IP; endogenous proteins; A549 and radioresistant A549/X cells lysed in 20 mM Tris pH 7.5, 150 mM NaCl, 1% Triton X-100, 1 mM EDTA; primary antibody overnight at 4°C, protein A/G agarose; immunoblot
[3] = biological target: HA-tagged PD-L1 (PD-L1-3 HA) (UniProt Q9NZQ7); experiment: co-IP; HEK293T co-transfected with Flag-FLOT1 and HA-PD-L1 (or vector), lysates 48 h after transfection; anti-Flag or anti-HA magnetic beads at 4°C overnight, washed with PBST (0.1% Triton X-100); immunoblot with anti-HA or anti-Flag

binding [1]: binds
Molecule: HA-tagged PD-L1 (PD-L1-3 HA) (from UniProt Q9NZQ7 19-290)

B1: flotillin-1 (FLOT1), endogenous (protein, UniProt O75955 1-427)
chain: MFFTCGPNEAMVVSGFCRSPPVMVAGGRVFVLPCIQQIQRISLNTLTLNVKSEKVYTRHGVPISVTGIAQVKIQGQNKEMLAAACQMFLGKTEAEIAHIALETLEGHQRAIMAHMTVEEIYKDRQKFSEQVFKVASSDLVNMGISVVSYTLKDIHDDQDYLHSLGKARTAQVQKDARIGEAEAKRDAGIREAKAKQEKVSAQYLSEIEMAKAQRDYELKKAAYDIEVNTRRAQADLAYQLQVAKTKQQIEEQRVQVQVVERAQQVAVQEQEIARREKELEARVRKPAEAERYKLERLAEAEKSQLIMQAEAEAASVRMRGEAEAFAIGARARAEAEQMAKKAEAFQLYQEAAQLDMLLEKLPQVAEEISGPLTSANKITLVSSGSGTMGAAKVTGEVLDILTRLPESVERLTGVSISQVNHKPLRTA
binding [2]: binds

binding [3]: binds
B2: Flag-tagged FLOT1 (FLOT1-3Flag) (protein, UniProt O75955 1-427)
chain: MFFTCGPNEAMVVSGFCRSPPVMVAGGRVFVLPCIQQIQRISLNTLTLNVKSEKVYTRHGVPISVTGIAQVKIQGQNKEMLAAACQMFLGKTEAEIAHIALETLEGHQRAIMAHMTVEEIYKDRQKFSEQVFKVASSDLVNMGISVVSYTLKDIHDDQDYLHSLGKARTAQVQKDARIGEAEAKRDAGIREAKAKQEKVSAQYLSEIEMAKAQRDYELKKAAYDIEVNTRRAQADLAYQLQVAKTKQQIEEQRVQVQVVERAQQVAVQEQEIARREKELEARVRKPAEAERYKLERLAEAEKSQLIMQAEAEAASVRMRGEAEAFAIGARARAEAEQMAKKAEAFQLYQEAAQLDMLLEKLPQVAEEISGPLTSANKITLVSSGSGTMGAAKVTGEVLDILTRLPESVERLTGVSISQVNHKPLRTA
